Reference: PubChem BioAssay AID504808 (Drosophila RNAi Screening Center, 2011)
The screen tested about 21,000 reagents; below is a random part of those that have a named target and a result. In the full data, 18 (0.084%) got an active call. 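Raw counts without plate normalisation, one of two replicates; the ratio scores behind the calls were not deposited.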 Names joined by + are all predicted targets of the reagent. The record does not give: the amount of reagent, the time to read-out.

- Purpose: 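Chromatin factors that keep E2F targets switched off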 (primary screen)
- System: Drosophila S2 cells
- Reagent: long dsRNA against Drosophila genes
- Measurement: 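Dual luciferase plate measurements; E2F-specific signal taken as firefly over Renilla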
- Scale: E2F firefly: higher = more E2F reporter activity; Renilla normaliser: higher = more normaliser reporter signal
- Hit rule: 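Called active if the normalised E2F reporter went up by over 50%; the cutoff is arbitrary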

gene | DRSC id | E2F firefly, rep 1 | Renilla normaliser, rep 1 | call
fiz | DRSC20188 | 7908 | 644 | inactive
Atg13 | DRSC16228 | 1.47e5 | 7510 | inactive
eIF4B | DRSC20983 | 1.43e5 | 6752 | inactive
CG12885 | DRSC14572 | 1.16e5 | 7661 | inactive
GEFmeso | DRSC06748 | 66973 | 3311 | inactive
GEFmeso | DRSC06940 | 1.54e5 | 5303 | inactive
CG4882 | DRSC04495 | 99259 | 4458 | inactive
sit | DRSC15760 | 90428 | 5984 | inactive
PheRS-m | DRSC05915 | 3088 | 185 | inactive
Hira | DRSC18672 | 1.04e5 | 5426 | inactive
Baldspot | DRSC09671 | 1.50e5 | 8142 | inactive
CG13042 | DRSC09923 | 1.69e5 | 8033 | inactive
Sin3A | DRSC07552 | 1619 | 212 | inactive
CG9018 | DRSC08618 | 94110 | 3717 | inactive
CG14507 | DRSC14859 | 1.10e5 | 5327 | inactive
HP1c | DRSC16166 | 78187 | 3463 | inactive
CG10365 | DRSC14234 | 1.16e5 | 5362 | inactive
CG7896 | DRSC16335 | 1992 | 832 | inactive
CG14194 | DRSC19549 | 1.27e5 | 485 | inactive
MICU3 | DRSC13381 | 74440 | 2619 | inactive
MICU3 | DRSC15613 | 73354 | 4051 | inactive
Bka | DRSC02757 | 1.47e5 | 5999 | inactive
CG3419 (retired record) | DRSC04368 | 1.26e5 | 5442 | inactive
CG3419 (retired record) | DRSC04369 | 1.09e5 | 4414 | inactive
Prat2 | DRSC09692 | 74816 | 3550 | inactive
Tsp42Ep | DRSC06871 | 81425 | 3606 | inactive
tsg | DRSC20380 | 89567 | 5559 | inactive
Vang | DRSC07570 | 1.51e5 | 4761 | inactive
Cyp303a1 | DRSC03300 | 1.11e5 | 4673 | inactive
Gyc89Db | DRSC15009 | 76573 | 2740 | inactive
mRpL3 | DRSC20100 | 2.41e5 | 5883 | inactive
CG13560 | DRSC04198 | 1.05e5 | 4377 | inactive
CG13814 (retired record) | DRSC10069 | 1.16e5 | 5431 | inactive
krimp | DRSC06578 | 64690 | 3842 | inactive
CG42525 | DRSC08026 | 1.26e5 | 4862 | inactive
Mpv17 | DRSC17198 | 1.22e5 | 6130 | inactive
CG16825 | DRSC02526 | 85747 | 3502 | inactive
Pstk + CG14210 + Tim9b | DRSC19566 | 1.16e5 | 5622 | inactive
CG3124 | DRSC04339 | 87683 | 3974 | inactive
CG10694 | DRSC14263 | 1.07e5 | 6376 | inactive
CG7080 | DRSC16193 | 77260 | 3996 | inactive
CRAT | DRSC12523 | 1.45e5 | 6186 | inactive
Art2 | DRSC00627 | 1.58e5 | 5384 | inactive
CG32249 | DRSC08101 | 1.31e5 | 4594 | inactive
CG32249 | DRSC08177 | 85435 | 3748 | inactive
Hsp70Aa + Hsp70Bb + Hsp70Ba + 3 more | DRSC15380 | 94480 | 5023 | inactive
Pi3K68D | DRSC11253 | 78836 | 4080 | inactive
CG14342 | DRSC00372 | 1.64e5 | 6268 | inactive
CG30340 | DRSC05167 | 1.30e5 | 5515 | inactive
Mlc2 | DRSC16741 | 1586 | 1076 | inactive
CG32944 | DRSC12138 | 1.39e5 | 6698 | inactive
CG32944 | DRSC12341 | 1.30e5 | 5964 | inactive
CG31198 | DRSC15891 | 71182 | 3152 | inactive
Sirt1 | DRSC03435 | 67745 | 3181 | inactive
CG15888 | DRSC15125 | 1.03e5 | 6782 | inactive

13 consecutive entries already listed, for reference:
gene | DRSC id | E2F firefly, rep 1 | Renilla normaliser, rep 1 | call
CG14507 | DRSC14859 | 1.10e5 | 5327 | inactive
HP1c | DRSC16166 | 78187 | 3463 | inactive
CG10365 | DRSC14234 | 1.16e5 | 5362 | inactive
CG7896 | DRSC16335 | 1992 | 832 | inactive
CG14194 | DRSC19549 | 1.27e5 | 485 | inactive
MICU3 | DRSC13381 | 74440 | 2619 | inactive
MICU3 | DRSC15613 | 73354 | 4051 | inactive
Bka | DRSC02757 | 1.47e5 | 5999 | inactive
CG3419 (retired record) | DRSC04368 | 1.26e5 | 5442 | inactive
CG3419 (retired record) | DRSC04369 | 1.09e5 | 4414 | inactive
Prat2 | DRSC09692 | 74816 | 3550 | inactive
Tsp42Ep | DRSC06871 | 81425 | 3606 | inactive
tsg | DRSC20380 | 89567 | 5559 | inactive

Continued.
gene | DRSC id | E2F firefly, rep 1 | Renilla normaliser, rep 1 | call
CG12493 | DRSC08279 | 94031 | 3859 | inactive
CG1077 | DRSC12146 | 1.35e5 | 6594 | inactive
CG10911 | DRSC06008 | 1.51e5 | 5184 | inactive
CG3505 | DRSC15489 | 59223 | 3152 | inactive
CG10910 | DRSC06007 | 1.39e5 | 5738 | inactive
CG42710 | DRSC01034 | 1.34e5 | 6259 | inactive
Pgant9 | DRSC05621 | 1.59e5 | 6872 | inactive
Pgant9 | DRSC06584 | 1.50e5 | 5166 | inactive
Pgant9 | DRSC07185 | 1.36e5 | 5019 | inactive
Pgant9 | DRSC07186 | 1.44e5 | 4451 | inactive
Pgant9 | DRSC07187 | 1.55e5 | 5443 | inactive
Pgant9 | DRSC07189 | 1.56e5 | 4842 | inactive
nemy | DRSC05357 | 1.24e5 | 5802 | inactive
nemy | DRSC07262 | 82922 | 6202 | inactive
CG13036 (retired record) | DRSC09916 | 1.78e5 | 7439 | inactive
CG32212 + hpRNA:CR33940 | DRSC09618 | 96895 | 4145 | inactive
CG2209 | DRSC19843 | 1.21e5 | 6307 | inactive
Sox21b | DRSC10025 | 88379 | 3814 | inactive
Sox21b | DRSC10634 | 1.21e5 | 6107 | inactive
CG12964 | DRSC06266 | 87275 | 3603 | inactive
fos28F (retired record) | DRSC03391 | 1.58e5 | 5488 | inactive
Mlp60A | DRSC04623 | 1.20e5 | 4569 | inactive
CG10469 | DRSC09729 | 80803 | 3857 | inactive
CG14495 | DRSC06466 | 1.47e5 | 5574 | inactive
beat-IIIc | DRSC02438 | 1.17e5 | 4384 | inactive
beat-IIIc | DRSC02949 | 1.08e5 | 4451 | inactive
sstn | DRSC10753 | 1.48e5 | 6989 | inactive
CG13800 (retired record) | DRSC08334 | 98998 | 3964 | inactive
CG17807 | DRSC04296 | 86052 | 3564 | inactive
